PubChem BioAssay AID504793, Drosophila RNAi Screening Center, 2011
In all, the deposit lists about 23,000 reagents; this is a random part of those that have a named target and a result. Of all reagents, 62 (0.27%) got an active call. 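Calls come from follow-up tests whose scores are not deposited, so confirmed genes may have low counts here; counts are not normalised per plate.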 Raw values vary from plate to plate and are shown uncorrected.

Screen: 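Knock-downs allowing continued mitosis even though DNA is damaged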 (primary screen)
Cells: Drosophila S2R+ cells
Knock-down reagent: long dsRNA against Drosophila genes, about 0.25 µg dsRNA per well
Duration: 4 days of dsRNA, then 4 hours of drug before read-out
Conditions: doxorubicin 0.5 µM for 4 hours to cause double-strand breaks, in cells also given a low, harmless dose of dsRNA against nbs to sensitise the assay
Read-out: 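Mitotic index as the number of phospho-histone H3-positive cells in each well following doxorubicin, given as raw counts without normalisation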
Scale: mitotic cells: higher = more cells in mitosis, weaker G2 arrest
Hit rule: 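Genes are called active only when high mitotic counts were reproduced with independent dsRNAs and mitosis was checked for delay without damage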
Meaning of the calls: active = confirmed in follow-up tests; inactive = not confirmed

| gene | PubChem SID | mitotic cells, replicate 1 | activity call |
| --- | --- | --- | --- |
| CG32830 (retired record) | SID104180954 | 8 | inactive |
| CG32830 (retired record) | SID104202508 | 16 | inactive |
| CG12355 | SID104189173 | 6 | inactive |
| CG12355 | SID104189675 | 7 | inactive |
| Sur | SID104183239 | 6 | inactive |
| Sur | SID104205820 | 5 | inactive |
| CG34057 | SID104188167 | 6 | inactive |
| CG14082 | SID104189878 | 4 | inactive |
| CG14082 | SID104204018 | 5 | inactive |
| CG5556 | SID104180479 | 3 | inactive |
| CG5171 | SID104182615 | 9 | inactive |
| CG5171 | SID104206636 | 7 | inactive |
| CG32413 | SID104201298 | 10 | inactive |
| CG1409 | SID104197702 | 14 | inactive |
| CG5265 | SID104195548 | 5 | inactive |
| CG12693 | SID104197674 | 11 | inactive |
| FarO | SID104198267 | 15 | inactive |
| HBS1 | SID104188336 | 9 | inactive |
| HBS1 | SID104206970 | 7 | inactive |
| atilla | SID104182763 | 5 | inactive |
| atilla | SID104205952 | 13 | inactive |
| CG17350 | SID104182403 | 10 | inactive |
| CG3494 | SID104184167 | 6 | inactive |
| CG13983 | SID104182107 | 6 | inactive |
| CG13983 | SID104207461 | 7 | inactive |
| twit | SID104183002 | 5 | inactive |
| twit | SID104208572 | 13 | inactive |
| Slbp | SID104196655 | 9 | inactive |
| Rh3 | SID104196614 | 6 | inactive |
| P32 | SID104186780 | 8 | inactive |
| ACC | SID104185851 | 8 | inactive |
| ACC | SID104187041 | 7 | inactive |
| D | SID104190924 | 11 | inactive |
| D | SID104203913 | 4 | inactive |
| CG11588 | SID104188937 | 18 | inactive |
| CG11588 | SID104189638 | 6 | inactive |
| CG7025 | SID104182794 | – | inactive |
| l(3)neo38 | SID104194738 | 8 | inactive |
| l(3)neo38 | SID104195930 | 6 | inactive |
| l(3)neo38 | SID104202619 | 1 | inactive |
| l(3)neo38 | SID104205656 | 3 | inactive |
| l(3)neo38 | SID104206212 | 6 | inactive |
| CG10345 | SID104193930 | 4 | inactive |
| CG30470 (retired record) | SID104185345 | 3 | inactive |
| CG30470 (retired record) | SID104186052 | 12 | inactive |
| CG30470 (retired record) | SID104186053 | 8 | inactive |
| CG30470 (retired record) | SID104186569 | 8 | inactive |
| CG30470 (retired record) | SID104202540 | – | inactive |

Reformatted: results already given.
gene,PubChem SID,"mitotic cells, replicate 1",activity call
CG3494,SID104184167,6,inactive
CG13983,SID104182107,6,inactive
CG13983,SID104207461,7,inactive
twit,SID104183002,5,inactive
